Test results published in publication PMC8848768 (Chemical Science, 2022).

Assay: general procedure: solution-phase peptide synthesis; EDC•HCl, HOBt

Substance	step yield (late stage modification step) [%]	step yield (coupling step) [%]
(2R,3S)-2-Acetamido-N -((4S,10S,13R,16R,22S,25R)-26-hydroxy-22-(2-hydroxypropan-2-yl)-4,10,13-triisopropyl-2,16,26-trimethyl-6,9,12,15,18,21,24-heptaoxo-7,19-di(propan-2-ylidene)-2,5,8,11,14,17,20,23-octaazaheptacosan-25-yl)-3-methylpentanamide	80	–
Methyl (2-(2-(2-((2S ,3R)-2-((tert-Butoxycarbonyl)amino)-3-methyl-3-((triethylsilyl)oxy)pentanamido)-3-ethylpent-2-enamido)acetamido)-3-methylbut-2-enoyl)-D-valinate	–	47
Methyl (2-(2-(2-((2S ,3R)-2-((tert-Butoxycarbonyl)amino)-3-methyl-3-((triethylsilyl)oxy)pentanamido)-3-methylbut-2-enamido)acetamido)-3-ethylpent-2-enoyl)-D-valinate	–	32
tert-Butyl ((4S ,10S,13R,16R,22S)-25,25-Diethyl-4,10,13-triisopropyl-2,16,23,23-tetramethyl-6,9,12,15,18,21-hexaoxo-7,19-di(propan-2-ylidene)-24-oxa-2,5,8,11,14,17,20-heptaaza-25-silaheptacosan-22-yl)carbamate	–	95
tert-Butyl ((7R,13S ,16R ,19R,20S )-13,16-Bis(2-hydroxypropan-2-yl)-2,7,20-trimethyl-6,9,12,15,18-pentaoxo-10-(propan-2-ylidene)-2,5,8,11,14,17-hexaazadocosan-19-yl)carbamate	–	78
